# PubChem BioAssay AID602196 – INSERM, 2012
# Assay: 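Knock-downs that protect lung cancer cells from cisplatin or sensitise them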
# Cells: human A549 lung cancer cells
# Reagent: siRNA pair against human genes
# Time to read-out: 48 h transfection before cisplatin; time from cisplatin to read-out not stated
# Challenge: cisplatin at a dose killing half of control-siRNA cells; exact dose and duration not given
# Measured: 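Shift in cisplatin death relative to control siRNA, from -50 (all cells die) to +50 (no cells die); siRNAs harmful on their own scored 0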
# Scale: two-siRNA summed score (-2 to +2): higher = both siRNAs protect from cisplatin killing; -2 means both sensitise; mean protection from cisplatin (shift in death) and protection from cisplatin (shift in death), siRNA C and protection from cisplatin (shift in death), siRNA D: higher = protection from cisplatin killing
# Rule for the call: 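Each siRNA scores 0 if harmful alone by LDH or WST-1, otherwise +1 if it reduces and -1 if it increases cisplatin killing; a gene is active when both siRNAs agree (sum +2 or -2)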
# Meaning of the calls: active = both siRNAs shift cisplatin killing the same way; inactive = no consistent shift, or siRNA harmful alone
# The deposit covers about 23,000 reagents; this is an unselected part. 455 of all reagents (2%) count as active. 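Active includes both protection and sensitisation; some change values fall well beyond the stated -50 to +50 range.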 Unmarked entries are inactive. The numbers tell different reagents against one gene apart. The record does not give: the amount of reagent.
target gene,reagent no.,two-siRNA summed score (-2 to +2),mean protection from cisplatin (shift in death) (%),"protection from cisplatin (shift in death), siRNA C (%)","protection from cisplatin (shift in death), siRNA D (%)"
GPCPD1,1,1,13.2,10.8,15.5
NBN,1,0,12.7,4.8,20.6
LOC441419,1,0,-3.4,-1.2,-5.5
MRPL1,1,0,7.8,5.2,10.4
ATP2A1,1,0,6,11,1
CELA1,1,0,8.2,14.2,2.2
NFKB1,1,0,4,-5.5,13.5
RDH10,1,0,-3.3,10.7,-17.3
SLC7A6OS,1,0,9.1,1.5,16.8
LOC132706,1,0,-3.4,-7.9,1.1
LOC442370,1,1,14.4,29.6,-0.7
GPATCH2,1,0,4.5,11.3,-2.3
RHCG,1,0,13,6.6,19.4
LOC440272,1,1,14.9,7,22.8
TESK1,1,1,10,11,9
TCAF1,1,0,6.2,2.7,9.7
ZMYND11,1,-1,-14.8,-15.6,-14.1
CDH15,1,0,-1.2,5.2,-7.6
PPIL6,1,1,13.3,0,26.7
TUBB2B,1,0,12.3,13,11.7
NRDC,1,-1,-8.7,1,-18.4
DDO,1,0,4.5,1.5,7.4
PCDHA2,1,0,-0.7,2.3,-3.7
LOC389192,1,0,2.3,15.8,-11.3
ITGA4,1,0,-4.4,-1.2,-7.7

Part of the list above, set out differently.
{"target gene": "LOC442370", "reagent no.": 1, "two-siRNA summed score (-2 to +2)": 1, "mean protection from cisplatin (shift in death) (%)": 14.4, "protection from cisplatin (shift in death), siRNA C (%)": 29.6, "protection from cisplatin (shift in death), siRNA D (%)": -0.7}
{"target gene": "GPATCH2", "reagent no.": 1, "two-siRNA summed score (-2 to +2)": 0, "mean protection from cisplatin (shift in death) (%)": 4.5, "protection from cisplatin (shift in death), siRNA C (%)": 11.3, "protection from cisplatin (shift in death), siRNA D (%)": -2.3}
{"target gene": "RHCG", "reagent no.": 1, "two-siRNA summed score (-2 to +2)": 0, "mean protection from cisplatin (shift in death) (%)": 13, "protection from cisplatin (shift in death), siRNA C (%)": 6.6, "protection from cisplatin (shift in death), siRNA D (%)": 19.4}
{"target gene": "LOC440272", "reagent no.": 1, "two-siRNA summed score (-2 to +2)": 1, "mean protection from cisplatin (shift in death) (%)": 14.9, "protection from cisplatin (shift in death), siRNA C (%)": 7, "protection from cisplatin (shift in death), siRNA D (%)": 22.8}
{"target gene": "TESK1", "reagent no.": 1, "two-siRNA summed score (-2 to +2)": 1, "mean protection from cisplatin (shift in death) (%)": 10, "protection from cisplatin (shift in death), siRNA C (%)": 11, "protection from cisplatin (shift in death), siRNA D (%)": 9}

Further reagents follow:
target gene,reagent no.,two-siRNA summed score (-2 to +2),mean protection from cisplatin (shift in death) (%),"protection from cisplatin (shift in death), siRNA C (%)","protection from cisplatin (shift in death), siRNA D (%)"
DLG2,1,0,-2.3,-7.8,3.3
TMC7,1,0,1.9,3.5,0.2
MX1,1,-2 (active),-16,-15.7,-16.3
BCL2,1,-1,-8.1,-1.9,-14.3
LOC389036,1,1,14.6,8.5,20.7
AP1S1,1,0,9.2,13.5,5
TAS1R1,1,-1,-9.4,-3.9,-14.8
ANKRD20A11P,1,0,7.8,4.3,11.3
TRIM49B,1,0,-0.9,-6.7,4.8
CNTN3,1,0,9.1,-0.9,19.1
RSKR,1,0,2.1,16.5,-12.2
ELF1,1,0,6.7,12,1.4
ACTL11P,1,0,8.4,18.1,-1.2
NT5DC2,1,0,7,3.6,10.4
AMOT,1,0,5.7,3.5,7.9
HLA-G,1,1,8.3,2,14.7
LOC390566,1,0,2.2,4.4,-0.1
VEGFB,1,0,7.6,20.3,-5
ZNF236,1,1,12.5,15.7,9.4
CERS4,1,0,5.9,-13.8,25.7
SH3BGRL3,1,0,-4.3,6.3,-14.8
DLD,1,1,17.7,20.2,15.1
ASNS,1,0,9.5,7.8,11.3
ABHD12B,1,0,9.4,-2.7,21.4
OR8B8,1,1,18.6,30.6,6.7
SPATA2,1,1,6.1,0.4,11.8
CDK13,1,-1,-0.6,-8.3,7
RBM25,1,0,3.6,-8.7,15.9
FAT3,1,0,18.1,21.3,14.8
VPS50,1,0,10.5,14.7,6.4
VPS50,2,0,18.9,19.3,18.6
TRHDE-AS1,1,1,9.9,25,-5.1
